These are yes or no findings as the source states them, for the method shown. Binding can be weak; no strength is given.
Key:
[1] = target: insulin-like growth factor I (IGF-I) (UniProt P05019); test: TG2 crosslinking reaction (1 h, 1 mM CaCl2, pH 7.5), reducing SDS-PAGE, Western blot for IGF-I
[2] = target: recombinant extracellular domain of IGF1R (UniProt P08069); test: as above
[3] = target: insulin-like growth factor I (IGF-I) (UniProt P05019); test: IGF-I reacted with TG2, SDS-PAGE and Western blot for IGF-I

By UniProt entry, the sequences of proteins in these tests, tags left out. Where a name states a change or a piece, a line headed by the entry shows the natural chain unless it says otherwise. Residues count along the entry.
UniProt P05019, residues 49-118: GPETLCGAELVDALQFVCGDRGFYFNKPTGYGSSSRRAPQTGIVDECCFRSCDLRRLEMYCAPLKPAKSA
UniProt P08069, residues 31-935: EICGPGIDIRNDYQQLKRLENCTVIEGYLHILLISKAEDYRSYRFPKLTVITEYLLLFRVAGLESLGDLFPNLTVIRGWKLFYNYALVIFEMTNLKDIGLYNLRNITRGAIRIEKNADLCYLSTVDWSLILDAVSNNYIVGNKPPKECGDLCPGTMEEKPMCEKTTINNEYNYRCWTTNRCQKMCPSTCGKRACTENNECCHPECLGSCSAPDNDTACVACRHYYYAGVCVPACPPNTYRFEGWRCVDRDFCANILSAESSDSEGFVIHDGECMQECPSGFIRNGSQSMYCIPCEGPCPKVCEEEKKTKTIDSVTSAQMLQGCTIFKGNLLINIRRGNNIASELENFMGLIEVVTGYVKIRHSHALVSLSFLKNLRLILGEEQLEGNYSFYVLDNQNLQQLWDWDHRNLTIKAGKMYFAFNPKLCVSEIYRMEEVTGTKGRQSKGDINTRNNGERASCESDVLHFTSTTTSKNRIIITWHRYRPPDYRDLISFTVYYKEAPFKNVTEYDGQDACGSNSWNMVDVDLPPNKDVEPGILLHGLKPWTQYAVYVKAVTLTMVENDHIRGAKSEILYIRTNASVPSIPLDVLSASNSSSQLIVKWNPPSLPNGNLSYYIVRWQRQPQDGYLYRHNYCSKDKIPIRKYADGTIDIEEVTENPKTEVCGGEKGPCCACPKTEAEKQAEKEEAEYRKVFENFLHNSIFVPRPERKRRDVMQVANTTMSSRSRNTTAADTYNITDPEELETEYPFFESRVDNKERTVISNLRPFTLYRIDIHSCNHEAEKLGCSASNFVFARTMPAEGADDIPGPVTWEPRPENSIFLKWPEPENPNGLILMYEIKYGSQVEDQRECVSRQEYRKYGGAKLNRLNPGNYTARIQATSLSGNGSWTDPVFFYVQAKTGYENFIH
UniProt P21980: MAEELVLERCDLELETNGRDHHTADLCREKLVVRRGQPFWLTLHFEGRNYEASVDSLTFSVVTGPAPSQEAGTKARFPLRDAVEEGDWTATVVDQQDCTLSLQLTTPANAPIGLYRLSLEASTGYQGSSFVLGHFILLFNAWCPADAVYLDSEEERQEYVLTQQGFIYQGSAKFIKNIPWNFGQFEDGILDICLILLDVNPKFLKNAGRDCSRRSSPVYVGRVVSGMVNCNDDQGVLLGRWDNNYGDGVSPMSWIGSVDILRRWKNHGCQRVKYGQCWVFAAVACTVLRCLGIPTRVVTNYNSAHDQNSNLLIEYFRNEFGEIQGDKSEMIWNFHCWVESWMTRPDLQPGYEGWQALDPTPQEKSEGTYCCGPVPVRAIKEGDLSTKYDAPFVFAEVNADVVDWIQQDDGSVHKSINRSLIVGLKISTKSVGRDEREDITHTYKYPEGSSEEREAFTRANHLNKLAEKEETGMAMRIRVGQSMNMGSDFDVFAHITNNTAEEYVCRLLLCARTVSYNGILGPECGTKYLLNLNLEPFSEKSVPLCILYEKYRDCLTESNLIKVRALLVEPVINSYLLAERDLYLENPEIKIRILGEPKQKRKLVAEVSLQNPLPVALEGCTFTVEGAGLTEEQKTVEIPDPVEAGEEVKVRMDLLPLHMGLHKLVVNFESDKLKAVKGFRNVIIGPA

binding [1]: binds
binding [2]: binds
binding [3]: binds
Substance: transglutaminase 2 (TG2, tissue transglutaminase) (from UniProt P21980) (enzyme)

Reference: patent US20120058120A1, “Targets for Growth Factor Signalling and Methods of Therapy” (priority 2009, published 2012)
